In this assay the target is PTEN‐induced kinase 1 (PINK1), endogenous in neonatal rat cardiomyocytes (rat (endogenous in NRCM)) (UniProt B5DFG1). In words: co-IP; endogenous co-IP of PINK1 and Prdx2 in NRCM.

Protein sequences, listed by entry. Tags and fused reporters are not part of them. Residues count along the entry.
UniProt B5DFG1, residues 78-580: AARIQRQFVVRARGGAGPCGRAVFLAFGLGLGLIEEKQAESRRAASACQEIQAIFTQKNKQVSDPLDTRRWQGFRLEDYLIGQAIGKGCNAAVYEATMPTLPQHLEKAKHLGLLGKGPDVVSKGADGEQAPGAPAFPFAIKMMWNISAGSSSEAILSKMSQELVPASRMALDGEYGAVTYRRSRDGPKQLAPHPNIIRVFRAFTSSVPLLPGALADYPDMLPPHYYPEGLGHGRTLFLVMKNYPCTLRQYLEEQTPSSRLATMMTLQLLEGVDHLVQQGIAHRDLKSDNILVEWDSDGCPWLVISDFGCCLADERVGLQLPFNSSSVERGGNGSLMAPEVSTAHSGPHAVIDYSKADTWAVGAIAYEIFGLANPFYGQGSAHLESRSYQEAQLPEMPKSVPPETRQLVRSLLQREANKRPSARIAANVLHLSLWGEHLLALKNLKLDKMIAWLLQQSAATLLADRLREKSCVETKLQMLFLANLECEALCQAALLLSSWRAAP

No constants are given. Whether binding was seen depends on the method and setting. In cells and extracts the contact can be indirect. Some entries that bind do so weakly or less than the wild type.

B1: peroxiredoxin‐2 (Prdx2), endogenous in neonatal rat cardiomyocytes (protein, UniProt P35704 1-198)
chain: MASGNAHIGKPAPDFTGTAVVDGAFKEIKLSDYRGKYVVLFFYPLDFTFVCPTEIIAFSDHAEDFRKLGCEVLGVSVDSQFTHLAWINTPRKEGGLGPLNIPLLADVTKSLSQNYGVLKNDEGIAYRGLFIIDAKGVLRQITVNDLPVGRSVDEALRLVQAFQYTDEHGEVCPAGWKPGSDTIKPNVDDSKEYFSKHN
In the case of B1, the binding entry is reported as “binds”.

Source of the values: publication PMC11705485.
